Laboratory results published in the supplement of paper PMC12823440, “Inhibitors supercharge kinase turnover through native proteolytic circuits” (Nature, 2025).
Some of the results follow. Hit calls seldom repeat between salt and free forms of one compound.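 In K562 cells expressing nanoluciferase-fused kinases, luminescence was recorded at 4 h intervals between 2 and 18 h, normalized as percent of control with DMSO at 100% and a positive control at 0%. A significant (2 sigma) signal drop marks a time point as decreased. The authors' rule for a hit is not shown and takes in more than the number of time points.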

Sequences of proteins named here, by UniProt entry; tags and fusion partners are left off. A change or cut given only in a name is not applied to a line headed by its entry.
UniProt Q15208: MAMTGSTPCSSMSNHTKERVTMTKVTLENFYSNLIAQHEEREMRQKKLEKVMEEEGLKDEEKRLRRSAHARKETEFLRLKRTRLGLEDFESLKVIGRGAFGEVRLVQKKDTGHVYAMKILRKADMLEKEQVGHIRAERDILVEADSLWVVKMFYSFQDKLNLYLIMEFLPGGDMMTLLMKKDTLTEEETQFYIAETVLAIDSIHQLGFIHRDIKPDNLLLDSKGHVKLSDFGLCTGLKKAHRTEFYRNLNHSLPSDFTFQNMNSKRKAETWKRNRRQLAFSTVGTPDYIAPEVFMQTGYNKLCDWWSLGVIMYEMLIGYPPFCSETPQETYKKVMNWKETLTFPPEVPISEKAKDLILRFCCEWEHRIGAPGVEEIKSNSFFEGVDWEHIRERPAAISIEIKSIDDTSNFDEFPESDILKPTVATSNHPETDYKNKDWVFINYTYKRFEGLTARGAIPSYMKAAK
UniProt P42680: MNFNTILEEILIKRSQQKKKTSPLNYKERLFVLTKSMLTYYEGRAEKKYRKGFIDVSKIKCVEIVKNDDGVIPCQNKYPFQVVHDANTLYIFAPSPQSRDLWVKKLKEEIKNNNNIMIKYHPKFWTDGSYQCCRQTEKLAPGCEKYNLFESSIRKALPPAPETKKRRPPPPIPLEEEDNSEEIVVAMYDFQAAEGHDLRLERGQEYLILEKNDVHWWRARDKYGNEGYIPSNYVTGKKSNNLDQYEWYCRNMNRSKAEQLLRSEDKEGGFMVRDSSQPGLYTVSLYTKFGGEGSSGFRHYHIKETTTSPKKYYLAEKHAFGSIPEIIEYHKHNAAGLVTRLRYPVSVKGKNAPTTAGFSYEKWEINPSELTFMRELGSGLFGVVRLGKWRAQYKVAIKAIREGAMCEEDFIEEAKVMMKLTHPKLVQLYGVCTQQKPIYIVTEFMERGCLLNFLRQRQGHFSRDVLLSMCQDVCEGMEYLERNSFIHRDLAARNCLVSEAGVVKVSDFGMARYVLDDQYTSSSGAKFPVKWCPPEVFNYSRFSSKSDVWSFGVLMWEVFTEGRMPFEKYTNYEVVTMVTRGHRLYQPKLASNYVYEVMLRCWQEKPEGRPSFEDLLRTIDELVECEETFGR
UniProt P29597: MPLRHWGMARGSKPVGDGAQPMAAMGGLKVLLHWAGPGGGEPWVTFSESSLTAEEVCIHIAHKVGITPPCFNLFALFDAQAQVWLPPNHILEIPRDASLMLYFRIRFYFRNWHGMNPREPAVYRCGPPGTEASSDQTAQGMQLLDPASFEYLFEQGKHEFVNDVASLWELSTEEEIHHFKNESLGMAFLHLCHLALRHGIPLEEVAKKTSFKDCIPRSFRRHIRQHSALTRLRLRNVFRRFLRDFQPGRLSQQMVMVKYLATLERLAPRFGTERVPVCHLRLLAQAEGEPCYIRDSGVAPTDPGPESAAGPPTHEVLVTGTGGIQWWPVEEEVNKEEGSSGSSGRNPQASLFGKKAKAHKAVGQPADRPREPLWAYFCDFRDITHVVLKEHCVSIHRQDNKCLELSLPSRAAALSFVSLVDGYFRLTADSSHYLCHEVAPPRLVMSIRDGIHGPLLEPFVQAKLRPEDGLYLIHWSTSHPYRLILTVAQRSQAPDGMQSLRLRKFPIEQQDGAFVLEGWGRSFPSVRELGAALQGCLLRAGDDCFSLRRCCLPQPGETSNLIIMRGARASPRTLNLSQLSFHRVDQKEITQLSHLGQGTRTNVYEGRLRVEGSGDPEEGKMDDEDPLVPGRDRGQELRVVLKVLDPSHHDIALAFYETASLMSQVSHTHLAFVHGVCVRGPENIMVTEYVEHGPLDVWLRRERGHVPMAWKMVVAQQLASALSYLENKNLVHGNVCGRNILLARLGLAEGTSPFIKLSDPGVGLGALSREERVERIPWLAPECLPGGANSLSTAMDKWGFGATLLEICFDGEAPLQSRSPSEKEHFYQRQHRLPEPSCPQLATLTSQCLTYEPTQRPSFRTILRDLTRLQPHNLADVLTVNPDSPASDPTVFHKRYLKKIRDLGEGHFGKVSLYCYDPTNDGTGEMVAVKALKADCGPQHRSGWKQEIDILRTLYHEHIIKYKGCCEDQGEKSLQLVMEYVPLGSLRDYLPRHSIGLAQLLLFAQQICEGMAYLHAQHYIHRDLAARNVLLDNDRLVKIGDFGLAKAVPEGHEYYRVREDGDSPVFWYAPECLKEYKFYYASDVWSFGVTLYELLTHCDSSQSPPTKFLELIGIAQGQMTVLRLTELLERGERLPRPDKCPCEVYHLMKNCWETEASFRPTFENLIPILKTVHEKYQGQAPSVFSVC
UniProt Q6PHR2: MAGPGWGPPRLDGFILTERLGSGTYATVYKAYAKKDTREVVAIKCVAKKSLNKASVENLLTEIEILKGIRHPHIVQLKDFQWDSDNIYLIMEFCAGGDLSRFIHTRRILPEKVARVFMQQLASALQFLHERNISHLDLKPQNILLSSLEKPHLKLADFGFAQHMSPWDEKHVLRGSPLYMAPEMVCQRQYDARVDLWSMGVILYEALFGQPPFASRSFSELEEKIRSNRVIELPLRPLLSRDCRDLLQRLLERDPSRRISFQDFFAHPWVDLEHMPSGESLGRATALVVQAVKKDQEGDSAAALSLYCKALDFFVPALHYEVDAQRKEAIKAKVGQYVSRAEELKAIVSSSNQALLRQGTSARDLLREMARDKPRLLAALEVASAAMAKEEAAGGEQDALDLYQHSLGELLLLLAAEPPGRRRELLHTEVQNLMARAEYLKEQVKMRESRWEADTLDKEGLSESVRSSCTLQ
UniProt P07947, whole entry, looked up: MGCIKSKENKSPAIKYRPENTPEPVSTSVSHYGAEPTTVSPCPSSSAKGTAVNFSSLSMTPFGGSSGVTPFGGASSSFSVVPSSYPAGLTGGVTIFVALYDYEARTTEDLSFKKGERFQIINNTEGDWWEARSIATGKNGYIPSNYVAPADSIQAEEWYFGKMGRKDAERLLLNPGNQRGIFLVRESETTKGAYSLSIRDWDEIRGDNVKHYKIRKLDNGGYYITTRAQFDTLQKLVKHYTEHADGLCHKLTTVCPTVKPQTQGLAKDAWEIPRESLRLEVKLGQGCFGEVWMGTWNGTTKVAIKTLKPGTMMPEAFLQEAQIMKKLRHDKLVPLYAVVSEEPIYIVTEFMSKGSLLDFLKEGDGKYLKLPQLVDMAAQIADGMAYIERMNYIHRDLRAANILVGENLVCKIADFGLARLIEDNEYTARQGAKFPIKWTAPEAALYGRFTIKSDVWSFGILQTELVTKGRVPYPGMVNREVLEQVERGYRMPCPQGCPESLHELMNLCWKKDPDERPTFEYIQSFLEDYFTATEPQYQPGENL
UniProt P43403: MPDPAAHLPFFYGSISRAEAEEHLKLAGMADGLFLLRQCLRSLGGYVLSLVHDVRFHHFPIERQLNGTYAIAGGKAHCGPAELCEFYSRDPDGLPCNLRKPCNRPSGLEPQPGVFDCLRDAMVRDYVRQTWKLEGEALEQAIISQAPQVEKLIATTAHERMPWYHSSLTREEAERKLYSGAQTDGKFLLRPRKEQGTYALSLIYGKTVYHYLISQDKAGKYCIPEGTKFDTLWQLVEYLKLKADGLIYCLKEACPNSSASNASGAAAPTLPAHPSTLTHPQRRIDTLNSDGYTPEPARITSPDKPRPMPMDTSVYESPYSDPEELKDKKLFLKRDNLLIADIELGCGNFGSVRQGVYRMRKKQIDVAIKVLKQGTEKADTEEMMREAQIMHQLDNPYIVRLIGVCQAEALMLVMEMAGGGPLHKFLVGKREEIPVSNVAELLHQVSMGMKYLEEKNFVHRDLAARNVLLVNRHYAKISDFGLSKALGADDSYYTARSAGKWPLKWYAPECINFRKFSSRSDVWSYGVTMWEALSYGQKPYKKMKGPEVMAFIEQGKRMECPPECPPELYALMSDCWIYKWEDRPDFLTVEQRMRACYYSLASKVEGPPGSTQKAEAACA
UniProt P00519, whole entry: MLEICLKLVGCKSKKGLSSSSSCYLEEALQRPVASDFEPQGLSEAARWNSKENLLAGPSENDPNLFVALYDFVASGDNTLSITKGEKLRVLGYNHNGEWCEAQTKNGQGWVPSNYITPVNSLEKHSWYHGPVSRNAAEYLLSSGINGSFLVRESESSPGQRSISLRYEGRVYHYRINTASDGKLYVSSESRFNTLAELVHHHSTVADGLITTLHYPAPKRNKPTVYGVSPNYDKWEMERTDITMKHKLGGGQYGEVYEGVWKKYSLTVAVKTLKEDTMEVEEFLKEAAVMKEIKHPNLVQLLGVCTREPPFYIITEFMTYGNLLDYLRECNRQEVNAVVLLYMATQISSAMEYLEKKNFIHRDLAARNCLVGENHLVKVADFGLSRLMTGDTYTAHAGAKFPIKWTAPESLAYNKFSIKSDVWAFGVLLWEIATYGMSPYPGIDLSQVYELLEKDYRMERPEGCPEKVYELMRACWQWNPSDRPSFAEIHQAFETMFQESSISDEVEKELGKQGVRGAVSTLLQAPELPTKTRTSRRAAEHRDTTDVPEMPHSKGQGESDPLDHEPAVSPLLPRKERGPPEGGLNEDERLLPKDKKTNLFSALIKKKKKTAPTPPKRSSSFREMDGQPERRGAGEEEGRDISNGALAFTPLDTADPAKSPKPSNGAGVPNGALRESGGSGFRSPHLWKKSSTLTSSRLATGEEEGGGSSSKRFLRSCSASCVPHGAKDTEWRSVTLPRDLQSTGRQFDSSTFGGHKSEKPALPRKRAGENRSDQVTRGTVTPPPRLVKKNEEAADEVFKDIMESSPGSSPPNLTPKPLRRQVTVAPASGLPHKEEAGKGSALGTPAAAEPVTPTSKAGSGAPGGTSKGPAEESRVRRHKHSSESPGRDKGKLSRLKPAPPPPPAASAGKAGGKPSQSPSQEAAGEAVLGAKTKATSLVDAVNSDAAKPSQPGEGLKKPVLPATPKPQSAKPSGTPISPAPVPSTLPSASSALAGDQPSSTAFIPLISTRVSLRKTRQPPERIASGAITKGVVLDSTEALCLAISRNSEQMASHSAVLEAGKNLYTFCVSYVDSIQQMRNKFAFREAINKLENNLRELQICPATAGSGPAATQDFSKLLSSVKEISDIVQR
UniProt P31749: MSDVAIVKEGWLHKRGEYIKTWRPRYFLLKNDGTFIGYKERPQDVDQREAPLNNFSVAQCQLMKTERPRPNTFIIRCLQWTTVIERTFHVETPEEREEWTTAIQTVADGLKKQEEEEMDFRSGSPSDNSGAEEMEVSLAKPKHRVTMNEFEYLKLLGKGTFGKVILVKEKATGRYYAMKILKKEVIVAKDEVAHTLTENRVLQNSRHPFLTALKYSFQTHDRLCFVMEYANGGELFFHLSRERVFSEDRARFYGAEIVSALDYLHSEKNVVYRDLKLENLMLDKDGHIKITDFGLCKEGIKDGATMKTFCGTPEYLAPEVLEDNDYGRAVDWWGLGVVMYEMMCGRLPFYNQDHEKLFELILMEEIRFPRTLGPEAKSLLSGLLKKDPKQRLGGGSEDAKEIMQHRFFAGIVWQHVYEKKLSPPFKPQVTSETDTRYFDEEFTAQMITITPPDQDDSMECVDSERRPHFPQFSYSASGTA

What was measured:
Conditions in all cases: K562; 2-18 h
[1] = biological target: STK38 (UniProt Q15208); assay: kinase-Nluc reporter destabilization hit call (1 = scored as downregulated) (binary); higher = compound decreases kinase abundance
[2] = biological target: SYK (UniProt P43405); assay: as above
[3] = biological target: TEC (UniProt P42680); assay: as above
[4] = biological target: TYK2 (UniProt P29597); assay: as above
[5] = biological target: ULK3 (UniProt Q6PHR2); assay: as above
[6] = biological target: YES1 (UniProt P07947); assay: as above
[7] = biological target: ZAK (UniProt Q9NYL2); assay: as above
[8] = biological target: ZAP70 (UniProt P43403); assay: as above
[9] = biological target: ABL1 (UniProt P00519); assay: number of time points (of 5) at which kinase-Nluc abundance scored as decreased, DMSO-normalised (count); higher = more persistent destabilization
[10] = biological target: AKT1 (UniProt P31749); assay: as above

Compound | kinase-Nluc reporter destabilization hit call [1] | kinase-Nluc reporter destabilization hit call [2] | kinase-Nluc reporter destabilization hit call [3] | kinase-Nluc reporter destabilization hit call [4] | kinase-Nluc reporter destabilization hit call [5] | kinase-Nluc reporter destabilization hit call [6] | kinase-Nluc reporter destabilization hit call [7] | kinase-Nluc reporter destabilization hit call [8] | number of time points [9] | number of time points [10]
Cc1nn(C)c2c1C(c1ccc(C(F)(F)F)cc1)C(C#N)=C(N)O2 (stereo not given) (10 µM) | inactive: 0 | inactive: 0 | inactive: 0 | inactive: 0 | inactive: 0 | inactive: 0 | inactive: 0 | inactive: 0 | 0 | 0
COc1cc(/C=C/C(=O)N2CCC=CC2=O)cc(OC)c1OC [Piperlongumine] (2.5 µM) | inactive: 0 | inactive: 0 | inactive: 0 | inactive: 0 | inactive: 0 | inactive: 0 | inactive: 0 | inactive: 0 | 3 | 0
NC(=O)c1cnc2[nH]ccc2c1N[C@@H]1[C@@H]2CC3C[C@H]1C[C@@](O)(C3)C2 [Peficitinib] (10 µM) | inactive: 0 | inactive: 0 | inactive: 0 | inactive: 0 | inactive: 0 | inactive: 0 | inactive: 0 | inactive: 0 | 4 | 0
COCCNc1cc(NC(=O)N2CCCc3cc(CN4CCN(C)CC4=O)c(C=O)nc32)ncc1C#N [Roblitinib] (10 µM) | inactive: 0 | inactive: 0 | inactive: 0 | inactive: 0 | inactive: 0 | inactive: 0 | inactive: 0 | inactive: 0 | 0 | 0
O=C1NC(=O)/C(=C/c2ccc3nccc(-c4ccncc4)c3c2)S1 (10 µM) | inactive: 0 | inactive: 0 | inactive: 0 | inactive: 0 | inactive: 0 | inactive: 0 | inactive: 0 | inactive: 0 | 5 | 0
CNC(=O)c1ccccc1Nc1nc(Nc2ccc3c(c2OC)CCC[C@H](N2CCN(CCO)CC2)C3)ncc1Cl (10 µM) | inactive: 0 | inactive: 0 | inactive: 0 | inactive: 0 | inactive: 0 | inactive: 0 | inactive: 0 | inactive: 0 | 5 | 0
Cc1ccc(C(=O)Nc2sc(Nc3ccccc3)nc2C(N)=O)cc1 (10 µM) | inactive: 0 | inactive: 0 | inactive: 0 | inactive: 0 | inactive: 0 | inactive: 0 | inactive: 0 | inactive: 0 | 0 | 0
CCc1cccc(CC)c1NC(=O)N1Cc2[nH]nc(NC(=O)c3ccc(N4CCN(C)CC4)cc3)c2C1 (2.5 µM) | inactive: 0 | inactive: 0 | inactive: 0 | inactive: 0 | inactive: 0 | inactive: 0 | inactive: 0 | inactive: 0 | 2 | 0

Just kinase-Nluc reporter destabilization hit call [5], kinase-Nluc reporter destabilization hit call [2] and kinase-Nluc reporter destabilization hit call [8] (two entries from above):
Compound | kinase-Nluc reporter destabilization hit call [5] | kinase-Nluc reporter destabilization hit call [2] | kinase-Nluc reporter destabilization hit call [8]
Cc1ccc(C(=O)Nc2sc(Nc3ccccc3)nc2C(N)=O)cc1 (10 µM) | inactive: 0 | inactive: 0 | inactive: 0
CCc1cccc(CC)c1NC(=O)N1Cc2[nH]nc(NC(=O)c3ccc(N4CCN(C)CC4)cc3)c2C1 (2.5 µM) | inactive: 0 | inactive: 0 | inactive: 0
